Test results taken from PubChem BioAssay AID234 (DTP/NCI, 2004).
The list shows only some results of the screen, not a fair sample: it is rich in T/C values a quarter to a half above the control, in often repeated tests (any T/C) and in doses without a T/C. Other doses and runs of a compound stand elsewhere. T/C gives the treated animals as a percentage of the vehicle group. Schedules are NCI's codes, read here as Q, the interval in days (D) or hours (H), X, the number of doses. Some T/C values carry the count of animals alive at the toxicity check (mostly the fifth day); where none is given, no animal had died by that day. Some doses have a count of surviving animals in place of a T/C: the source files T/C as zero there, which appears to mark a toxic dose or a test without result, not a measured value. Counts of survivors are from the toxicity check (mostly the fifth day) where no day follows; animals may have died later. Some schedule codes hold Z or #, which are not explained here.

Test system: C3AKF1 mice, hamster liver cystadenocarcinoma s.c., tumor weight T/C
Assay: NCI In Vivo Anticancer Drug Screen. Data for tumor model Cystadenocarcinoma, Liver (No. 1) (Hamster) (subcutaneous) in C3AKF1 (CHKRF1) mice
Details: T/C endpoint: mean tumor weight, higher T/C = larger tumour; for T/C: evaluated on day 15
Procedure: The antitumor activity of compounds was measured in mice bearing transplantable tumors. Survival or tumor size were measured and the results are expressed as the measurement made in the treated group (T) divided by the measurement made in the vehicle treated control group (C). The tumor model used in this assay is Cystadenocarcinoma, Liver (No. 1) (Hamster) (subcutaneous) in C3AKF1 (CHKRF1) mice

[1] = dose: 150.0 mg/kg/injection, schedule: Q01DX010 (ip), vehicle: carboxymethylcellulose (CMC)
[2] = dose: 500.0 mg/kg/injection, schedule: Q01DX010 (ip), vehicle: carboxymethylcellulose (CMC)
[3] = dose: 50.0 mg/kg/injection, schedule: Q01DX010 (ip), vehicle: carboxymethylcellulose (CMC)
[4] = dose: 100.0 mg/kg/injection, schedule: Q01DX010 (ip), vehicle: carboxymethylcellulose (CMC)

Question: Which results are given for `O=C1C=Cc2ccc(O)cc2C1=O`?
Answer: survivor count (dose: 40.0 mg/kg/injection, schedule: Q01DX010 (ip), vehicle: carboxymethylcellulose (CMC)): 1 of 7; survivor count (dose: 80.0 mg/kg/injection, schedule: Q01DX010 (ip), vehicle: carboxymethylcellulose (CMC)): 0 of 7

Question: How did the T/C (dose: 5.0 mg/kg/injection, schedule: Q01DX010 (ip), vehicle: carboxymethylcellulose (CMC)) turn out when `O=c1[nH]c2cc(Cl)c(Cl)cc2o1` was run?
Answer: 127 % of control

Question: And the survivor count (dose: 19.0 mg/kg/injection, schedule: Q01DX010 (ip), vehicle: carboxymethylcellulose (CMC))?
Answer: 0 of 7

Question: What about the survivor count [1] of the same compound?
Answer: 2 of 7

Question: For `CCC[CH2][Sn]1([CH2]CCC)[O]C(=O)C[S]1`, which survivor count (dose: 3.12 mg/kg/injection, schedule: Q01DX010 (ip), vehicle: saline) is on record?
Answer: 0 of 7

Question: And the survivor count (dose: 6.25 mg/kg/injection, schedule: Q01DX010 (ip), vehicle: saline)?
Answer: 0 of 7

Question: And the survivor count (dose: 12.5 mg/kg/injection, schedule: Q01DX010 (ip), vehicle: saline)?
Answer: 0 of 7

Question: What about the survivor count (dose: 25.0 mg/kg/injection, schedule: Q01DX010 (ip), vehicle: saline) of the same compound?
Answer: 0 of 7

Question: `Cc1c2ccc3ccccc3c2c[n+]2ccccc12` was tested. Which T/C (dose: 6.0 mg/kg/injection, schedule: Q01DX010 (ip), vehicle: carboxymethylcellulose (CMC)) did it give?
Answer: 130 % of control

Question: What about the survivor count (dose: 24.0 mg/kg/injection, schedule: Q01DX010 (ip), vehicle: carboxymethylcellulose (CMC)) of the same compound?
Answer: 1 of 6

Question: `O=C(O)C(=O)c1ccc(-c2ccccc2)cc1` was tested. Which T/C (dose: 62.0 mg/kg/injection, schedule: Q01DX010 (ip), vehicle: carboxymethylcellulose (CMC)) did it give?
Answer: 128 % of control [6 of 7 alive]

Question: What about the survivor count (dose: 125.0 mg/kg/injection, schedule: Q01DX010 (ip), vehicle: carboxymethylcellulose (CMC)) of the same compound?
Answer: 2 of 7

Question: What about the survivor count (dose: 250.0 mg/kg/injection, schedule: Q01DX010 (ip), vehicle: carboxymethylcellulose (CMC)) of the same compound?
Answer: 0 of 7

Question: What about the survivor count [2] of the same compound?
Answer: 0 of 7

Question: With `CCCNC(=NC)c1ccc(NC(=O)c2ccc(C(=O)Nc3ccc(C(=NC)NCCC)cc3)cc2)cc1` as the compound, how does the survivor count (dose: 25.0 mg/kg/injection, schedule: Q01DX010 (ip), vehicle: carboxymethylcellulose (CMC)) read?
Answer: 0 of 6

Question: What about the survivor count [3] of the same compound?
Answer: 0 of 6

Question: What about the survivor count [4] of the same compound?
Answer: 0 of 6

Question: For `O=[N+]([O-])c1ccccc1CSc1ncnc2nc[nH]c12`, which survivor count [2] is on record?
Answer: 1 of 6

Question: How did the survivor count (dose: 62.5 mg/kg/injection, schedule: Q#A X010 (ip), vehicle: saline) turn out when `NC(=O)/C=C/C(=O)O` (tested in a mixture with another compound) was run?
Answer: 0 of 6

Question: And the survivor count (dose: 125.0 mg/kg/injection, schedule: Q#A X010 (ip), vehicle: saline)?
Answer: 0 of 6

Question: And the survivor count (dose: 250.0 mg/kg/injection, schedule: Q#A X010 (ip), vehicle: saline)?
Answer: 0 of 6

Question: With `S=c1c2[nH]cnc2ncn1CCSC1=NC=NC2=NC=NC21` (centres undefined) as the compound, how does the T/C [3] read?
Answer: 146 % of control

Question: What about the T/C [4] of the same compound?
Answer: 126 % of control

Question: And the survivor count (dose: 200.0 mg/kg/injection, schedule: Q01DX010 (ip), vehicle: carboxymethylcellulose (CMC))?
Answer: 3 of 6

Question: And the survivor count (dose: 400.0 mg/kg/injection, schedule: Q01DX010 (ip), vehicle: carboxymethylcellulose (CMC))?
Answer: 3 of 6

Question: Which survivor count (dose: 1440.0 mg/kg/injection, schedule: Q01DX010 (ip), vehicle: carboxymethylcellulose (CMC)) does the source give for `Fc1ccc(CSc2ncnc3c2ncn3C2CCCCO2)cc1` (centres undefined) here?
Answer: 0 of 6

Question: `CCOC1=CCCCC1` was tested. Which T/C (dose: 31.0 mg/kg/injection, schedule: Q01DX010 (ip), vehicle: carboxymethylcellulose (CMC)) did it give?
Answer: 135 % of control

Question: `COc1cc(OC)c(OC)cc1/C=C\c1ccnc2ccccc12` was tested. Which survivor count [2] did it give?
Answer: 4 of 7

Question: `S=C(N=Nc1ccccc1)NNc1ccccc1` was tested. Which survivor count (dose: 75.0 mg/kg/injection, schedule: Q01DX010 (ip), vehicle: carboxymethylcellulose (CMC)) did it give?
Answer: 2 of 7

Question: And the survivor count [1]?
Answer: 3 of 7

Question: And the survivor count (dose: 300.0 mg/kg/injection, schedule: Q01DX010 (ip), vehicle: carboxymethylcellulose (CMC))?
Answer: 1 of 7

Question: `COc1ccc2c(c1OC)C(=O)O[C@@H]2[C@H]1c2c(cc3c(c2OC)OCO3)CCN1C` was tested. Which survivor count (dose: 400.0 mg/kg/injection, schedule: Q01DX010 (ip), vehicle: saline) did it give?
Answer: 1 of 6

Question: For `O=C(COc1cc(Cl)c(Cl)cc1Cl)OCCOc1cc(Cl)c(Cl)cc1Cl`, which T/C (dose: 90.0 mg/kg/injection, schedule: Q01DX010 (ip), vehicle: carboxymethylcellulose (CMC)) is on record?
Answer: 125 % of control [4 of 6 alive]
